Test results as given in patent publication US11340216B2, “Methods and compositions for the positive selection of protein destabilizers” (Dana-Farber Cancer Institute, Inc., priority 2016, dated 2022).
At least one structure is not confirmed: it was looked up by name or label, or the drawing left a doubt.

Protein sequences, listed by entry. Tags and fused reporters are not part of them.
UniProt P27707, whole entry, species assumed: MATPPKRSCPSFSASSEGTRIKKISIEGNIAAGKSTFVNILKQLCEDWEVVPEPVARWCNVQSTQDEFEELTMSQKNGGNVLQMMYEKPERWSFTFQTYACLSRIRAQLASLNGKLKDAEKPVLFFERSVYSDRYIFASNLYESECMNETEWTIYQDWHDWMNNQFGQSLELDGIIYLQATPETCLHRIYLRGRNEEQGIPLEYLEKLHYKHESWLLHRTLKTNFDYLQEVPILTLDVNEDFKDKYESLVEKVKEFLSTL

Legend:
Type in all cases: cell-based
[1] = system: dCK-oncoprotein fusion (oncoprotein other than an IKZF protein); assay: BVdU dose-response in cells expressing dCK-oncoprotein fusion; details: FIG. 31
[2] = system: HEK-293FT cells with empty vector (EV); assay: BVdU sensitivity, cell count by Vi-Cell, empty vector (EV) control cells; details: 100 μM BVdU, FIG. 7
dCK-IKZF3 fusion protein = assay: BVdU sensitivity and pomalidomide rescue, cell count by Vi-Cell, cells expressing dCK-IKZF3 fusion; details: 100 μM BVdU, FIG. 7
Experimental: (§1) To assess the validity of the proposed positive selection system, a set of experiments was devised according to the technique outlined in FIG. 6. On day −2, 1×10^6 cells were seeded into a 6 cm dish with 4 mL of DMEM culture media. On day −1, 30,000 cells were seeded per well of a 6 well plate in DMEM media, and on day 0, media were replaced with DMEM media supplemented with decreasing concentrations of BVdU, generated by serial dilution. From days 0-4, media were replaced daily, and on day 5, cells were counted by Vi-Cell. For pomalidomide rescue experiments, the cells were seeded as described above, but from day −2 onwards, were maintained in DMEM media supplemented with 2 μM pomalidomide (Selleck Chemicals).

[3] = system: DCK-ER and ER-DCK fusion constructs; assay: BVdU dose-response in cells expressing ER fusion constructs; details: FIG. 12
[4] = target: T1, deoxycytidine kinase (dCK) (Homo sapiens, UniProt P27707); assay: BVdU sensitivity and pomalidomide rescue, cell count by Vi-Cell, cells expressing unfused dCK
T1 construct: V5 (only if expressed from the GFP vector); expressed in transfected cells
Experimental: as §1

SMILES: O=c1[nH]c(=O)n([C@H]2C[C@H](O)[C@@H](CO)O2)cc1/C=C/Br [BVdU, bromovinyl-deoxyuridine]
- Sensitivity to BVdU of cells expressing unfused dCK and dCK-oncoprotein [1]: sensitizes cells to BVdU
- Cell viability of empty vector (EV) cells versus DMSO [2]: nearly unchanged
- Cell viability of cells expressing enzyme-protein fusion (CK-IKZF) (dCK-IKZF3 fusion protein): drastic reduction in cell viability
- Cell viability of cells expressing enzyme-protein fusion (DCK-ER, ER-DCK) compared to EV [3]: drastic reduction in cell viability
- Cell viability of cells expressing enzyme (dCK) ([4]; 100 μM BVdU, FIG. 7): drastic reduction in cell viability
- Cell viability of cells expressing enzyme (dCK) compared to EV ([4]; BVdU dose-response, ER experiment, FIG. 12): drastic reduction in cell viability
